From patent publication US20030148404A1, “Peptides and substances, methods and devices using same for diagnosing and treating neurodegenerative disorders” (Ramot University Authority For Applied Research & …, priority 2000, published 2003) come the findings set out here.

Values joined by “and” are separate entries in the source; they are usually repeats but may differ in a detail not shown here. Equal entries are not always repeated.

In data set [1] the test system is anti-NF—H antibodies. In words: ELISA comparison of AD and NC sera with peptides; separation algorithms and grouping of peptides into FACTs. Format: binding, human. The following applies: for FACT1: similarity of the peptide's profile of signals of 96 serum samples (48 AD, 48 NC) to the ideal peptide profile (=1) of group FACT1; for FACT2: similarity of the peptide's profile of signals of 96 serum samples (48 AD, 48 NC) to the ideal peptide profile (=1) of group FACT2; for FACT3: similarity of the peptide's profile of signals of 96 serum samples (48 AD, 48 NC) to the ideal peptide profile (=1) of group FACT3; for FACT4: similarity of the peptide's profile of signals of 96 serum samples (48 AD, 48 NC) to the ideal peptide profile (=1) of group FACT4. The procedure: A Streptavidin stock solution (2 mg/ml Streptavidin prepared in purified water, aliquoted, and stored at −20° C.) was diluted 1:400 in ddH2O and a 100 μl aliquot was added to each well of a multiwell plate (96 well C-shaped microplates). The plates were incubated at 37° C. overnight until the liquid was entirely evaporated and stored until use at 4° C. in plastic bags containing a desiccating material. Such coated plates retained their activity for at least few days. The plates were washed 4 times by immersing in TBST. 200 μl of blocking solution were added to each of the wells. The plates were then incubated for 1 hour at room temperature. 100 μl of the biotinylated peptide (1 μg/ml in TBST) were added to each of the wells with the exception of the control wells. The plates were then incubated for 1 hour at room temperature.
Following incubation, the plates were washed in TBST 4 times as above. A 100 μl aliquot of serum which was diluted in a dilution buffer was added to each well and the plates were incubated for 1 hour at room temperature.
Following this incubation the wells were washed in TBST 4 times as above. A 100 μl aliquot of a secondary antibody (Goat anti-human IgG Horse radish peroxidase conjugate) which was diluted 1:2000 in dilution buffer was added to each well and the plates were incubated for 1 hour at room temperature.
The wells were then washed in TBST 4 times as above followed by two washes in TBS (TBST w/o Tween-20).
A 100 μl aliquot of the substrate solution was added to each well and the plates were incubated at room temperature.
OD was measured at 450 nm and 620 nm every minute over a period of 10-15 minutes.
Employing the above optimized parameters, eight AD and eight NC sera were analyzed using peptide 3M (SEQ ID NO:31). The experiment was repeated over a period of four days, employing four different plates each day. Two plates were preblocked with Gelatin, while two were not. In one experiment chloroform treated serum was analyzed on two additional plates. Three AD sera consistently gave rise to high signals in all experiments. One AD serum caused high signals in 10 out of the 13 plates and four AD sera were consistently negative. One NC sera caused high signals in some of the plates in the experiments conducted on all four days. Two additional NC sera gave rise to high signals in some of the plates in the experiments conducted on three of the four days. It was observed that when plates were coated with Streptavidin one day prior to the experiment, in contrast to the plates coated in advance and stored at 4° C. for 1-2 weeks, produced much better inter-plate reproducibility (not shown). The reproducibility of the experiments was assessed by averaging the rank-order numbers of each sample in every experiment (Table 3).
Sample numbers 862, 871, 861, and 874, acquired from AD patients, are separated by more than two standard deviation points from sample number 465. Sample number 485 is separated by one standard deviation point from sample number 465. […] However, by combining several peptides both the specificity and sensitivity can be improved.
It will be appreciated that the protocol optimization was done with one single peptide. It was shown that the system is sensitive to changes in peptide concentration, serum concentration and secondary antibody concentration, as a result, optimal conditions were chosen. A preliminary study on a limited number of AD and NC samples gave a sensitivity of 50% ( 4/8) and specificity of 87% (⅞). Using a combination of several peptides will increase both the sensitivity and accuracy. As is shown below, using a combination of several peptides increases both the sensitivity and accuracy.
A series of experiments were performed in which 48 AD and 48 NC were analyzed by the use of 17 different peptides (INO; 2L; 2LR; 3NO; 3L; 3M; 3R; 3LM; 3LR; 4LM; 4MR; 4LMR; 5LM; 6LR; 7MR; 8LMR and 8LMR-V). Two different algorithms were developed to analyze the data. […]
(In general: ELISA stands for enzyme-linked immunosorbent assay.)

The test system of data set [2] is anti-NF—H antibodies. In words: Streptavidin-biotin ELISA: serum IgG binding to biotinylated NF-H peptide (protocol optimisation, pooled AD serum). On the set-up: species or system human. The procedure: Solutions and Materials: Tris Buffered Saline (TBS): 50 mM Tris-HCl, pH 7.4 (Tris (Sigma, T-1378); HCl (Merck 1.00319.1000)) 200 mM NaCl (Merck, 1.06404.1000). TBST: 0.05% (w/v) Tween-20 (Sigma, P-7949) in TBS. Phosphate Buffered Saline (PBS): 0.1 M phosphate buffer, pH 7.2 (Sodium phosphate, monobasic (Sigma. S-8182) and Sodium phosphate, dibasic (Sigma, S-7907)). 200 mM NaCl (Merck, 1.06404.1000). PBST: 0.05% (w/v) Tween-20 (Sigma, P-7949) in PBS. Dilution/Blocking buffer: 0.5% Gelatin (Difco, 0143-17-9) in TBST. Streptavidin stock solution: 2 mg/ml Streptavidin (Sigma, S4762) in purified water. Aliquoted and kept at −20° C., this solution is stable indefinitely. Multiwell Plates: Nunc Maxisorp (Cat. No. 442404) 96 well C-shaped microplates. Secondary antibody: Goat anti-human IgG Horse radish peroxidase conjugate (Jackson, 109-035-088). Substrate solution: 1 mg/ml OPD (Sigma, P-8412)+0.005% H2O2 (Merck, 1.07210.0250) in […] Sodium Citrate buffer, pH 5 (Merck, 1.00 244.1000).
A Streptavidin stock solution (2 mg/ml Streptavidin prepared in purified water, aliquoted, and stored at −20° C.) was diluted 1:400 in ddH2O and a 100 μl aliquot was added to each well of a multiwell plate (96 well C-shaped microplates). […]
OD was measured at 450 nm and 620 nm every minute over a period of 10-15 minutes. […]

“A K S(PO3H) P E K A K S(PO3H) P A E A K S P-OH (AKSPEKAKSPAEAKSP; phosphoserines) [4LM]”: in data set [1], the FACT1 was found to be 0.178, the FACT2 came out at 0.1252, the FACT3 worked out at 0.8196 and the FACT4 was determined as 0.09459.

Consider “A K S(PO3H) P A E A K S P V K E E A K S P-OH (AKSPAEAKSPVKEEAKSP; phosphoserine) [3L]”, for which, in data set [1], the FACT1 amounted to 0.1423, the FACT2 is recorded as 0.6955, the FACT3 amounted to 0.2727 and the FACT4 was −0.2767.

Turning to “A K S P A E A K S(PO3H) P V K E E A K S P-OH (AKSPAEAKSPVKEEAKSP; phosphoserine) [3M]”, the “Signal to noise ratio (maximal)” value in data set [2] (serum dilution 1:20, pooled AD serum) is on record as roughly 3. Moreover, the “Signal to noise ratio” value in data set [2] (serum dilution 1:160, pooled AD serum) was “below 2”. Besides, in data set [1], the FACT1 turned out to be 0.00926, the FACT2 came to 0.6937, the FACT3 is listed as −0.05907 and the FACT4 is given as 0.2126.

Turning to “A K S(PO3H) P E K A K S(PO3H) P A E A K S(PO3H) P-OH (AKSPEKAKSPAEAKSP; phosphoserines) [4LMR]”, in data set [1], the FACT1 turned out to be 0.4508, the FACT2 is recorded as 0.491, the FACT3 is listed as 0.2495 and the FACT4 was −0.04654.

Take “A K S(PO3H) P A E A K S P V K E E A K S(PO3H) P-OH (AKSPAEAKSPVKEEAKSP; phosphoserines) [3LR]”: in data set [1], the FACT1 came out at 0.8566, the FACT2 is on record as 0.2849, the FACT3 came to 0.08781 and the FACT4 is given as 0.03219.

“A K S(PO3H) P V K E E A K S(PO3H) P E K A K S(PO3H) P-OH (AKSPVKEEAKSPEKAKSP; phosphoserines) [8LMR]”: in data set [1], the FACT1 was 0.8913, the FACT2 is listed as 0.2798, the FACT3 worked out at 0.1051 and the FACT4 stood at 0.05595.

Turning to “A K S P V K E E A K S(PO3H) P E K A K S(PO3H) P-OH (AKSPVKEEAKSPEKAKSP; phosphoserines) [8MR]”, in data set [1], the FACT1 turned out to be 0.7401, the FACT2 was −0.04212, the FACT3 worked out at 0.2388 and the FACT4 stood at 0.1709.

Consider “A K S(PO3H) P E K A K S(PO3H) P E K A K S P-OH (AKSPEKAKSPEKAKSP; phosphoserines) [5LM]”, for which, in data set [1], the FACT1 was 0.3837, the FACT2 was 0.6661, the FACT3 is given as 0.3099 and the FACT4 is on record as −0.1071.

For the sequence “A K S(PO3H) P A E A K S P E K A K S(PO3H) P-OH (AKSPAEAKSPEKAKSP; phosphoserines) [2LR]”, in data set [1], the FACT1 was 0.8206, the FACT2 is reported as −0.05813, the FACT3 was determined as 0.07225 and the FACT4 is given as −0.04948.

Regarding “A K S P V K E E A K S(PO3H) P A E A K S(PO3H) P-OH (AKSPVKEEAKSPAEAKSP; phosphoserines) [7MR]”, in data set [1], the FACT1 was determined as 0.7754, the FACT2 is reported as 0.1265, the FACT3 came out at 0.07956 and the FACT4 is given as 0.1147.

Turning to “A K S(PO3H) P A E A K S(PO3H) P V K E E A K S P-OH (AKSPAEAKSPVKEEAKSP; phosphoserines) [3LM]”, the FACT2 in data set [1] is 0.4503 and 0.8326.

As for “A K S(PO3H) P A E A K S P E K A K S P-OH (AKSPAEAKSPEKAKSP; phosphoserine) [2L]”, in data set [1], the FACT1 is 0.4415, the FACT2 amounted to 0.7005, the FACT3 is given as 0.208 and the FACT4 is listed as 0.1125.

Regarding “A K S P E K A K S(PO3H) P A E A K S(PO3H) P-OH (AKSPEKAKSPAEAKSP; phosphoserines) [4MR]”, in data set [1], the FACT1 is given as 0.8882, the FACT2 amounted to 0.2978, the FACT3 was 02125 and the FACT4 is recorded as 0.01311.

With “A K S(PO3H) P E K A K S P V K E E A K S(PO3H) P-OH (AKSPEKAKSPVKEEAKSP; phosphoserines) [6LR]”, in data set [1], the FACT1 is on record as 0.6779, the FACT2 stood at 0.2428, the FACT3 is given as −0.03787 and the FACT4 is listed as −0.2026.

Take “A K S(PO3H) P V K E E A K S(PO3H) P E K A K S(PO3H) P V-NH2 (AKSPVKEEAKSPEKAKSPV; phosphoserines; C-terminal amide) [8LMR-V]”: in data set [1], the FACT1 is listed as 0.07948, the FACT2 was determined as 0.02508, the FACT3 is on record as 0.00015 and the FACT4 was 0.934.
